Values of other authors as cited in patent US9622967B2, “Highly stable compositions of orally active nucleotide analogues or orally active nucleotide analogue prodrugs” (Sigmapharm Laboratories, LLC, priority 2010, dated 2017).
At least one read-out could not be matched to a standard name with certainty. At least one compound was matched to its structure with a doubt left.

Conditions: as compared to the corresponding absolute intravenous bioavailability

Row | Structure (SMILES) | relative oral bioavailability
1 | CC(C)(C)C(=O)OCOP(=O)(COCCn1cnc2c(N)ncnc21)OCOC(=O)C(C)(C)C [adefovir dipivoxil] | 17.0
2 | Nc1ncnc2c1ncn2CCOCP(=O)(O)O [adefovir, phosphinyl-methoxy-ethyl-adenine] | 7.8
3 | CC(C)(C)C(=O)OCOP(=O)(O)COCCn1cnc2c(N)ncnc21 [monoester of adefovir] | 6.5
